In patent US20130079370A1, “Method for the Inhibition of Deubiquitinating Activity” (priority 2011, published 2013):
“And” between values parts separate entries of the source, which are not always exact repeats. Equal entries are not always repeated.

These compounds were tested on MCF7 cells (assay: Connectivity Map (CMAP) analysis of b-AP15 expression signature). Settings: similarity of database compound signature to that of MCF7 cells treated with b-AP15 (1 μM, 6 h).

SMILES	CMAP Score
CCCCC/C=C/C=C1/C(=O)C=C[C@@H]1C/C=C\CCCC(=O)O [15 Δ prostaglandin J2]	0.999 and 0.940
CC(C)C[C@H](NC(=O)[C@H](CC(C)C)NC(=O)[C@H](CC(C)C)NC(=O)OCc1ccccc1)B(O)O [MG-262]	1
CC1=C(CO)C(=O)O[C@@H]([C@@H](C)[C@H]2CC[C@H]3[C@@H]4C[C@H]5O[C@]56[C@@H](O)C=CC(=O)[C@]6(C)[C@H]4CC[C@]23C)C1 [Withaferin A]	0.922
